# *: point of attachment. OPac = O=C(CO*)c1ccccc1; Boc = CC(C)(C)OC(=O)*; Bn = c1ccc(C*)cc1
# Assay: general procedure: hybrid (solid and solution phase) peptide synthesis; p-methylbenzhydrylamine-polystyrene resin (0.42 mM NH2/g resin, 1% divinylbenzene, 100-200 mesh); WSC.HCl / HOBt.H2O
# Details: coupling step, acetate (via TFA salt)
row,Substance,step yield [%]
1,Boc-S(Bn)NLS(Bn)-OPac,85.3
2,Boc-S(Bn)NLS(Bn)T(Bn)-OPac,84.0

# — patent US5428129 (dated 1995)
